Results: paper doi:10.1101/2020.06.17.156455
Results are given in words; binding and its absence hold for the method and conditions named. Binding seen in cells or lysates may run through a third protein. Some entries that bind do so weakly or less than the wild type. For part of these data: Sequences can lack the tags named with a protein.

Amino acid sequences for entries named in this document (tags omitted).
UniProt Q7Z434, whole entry: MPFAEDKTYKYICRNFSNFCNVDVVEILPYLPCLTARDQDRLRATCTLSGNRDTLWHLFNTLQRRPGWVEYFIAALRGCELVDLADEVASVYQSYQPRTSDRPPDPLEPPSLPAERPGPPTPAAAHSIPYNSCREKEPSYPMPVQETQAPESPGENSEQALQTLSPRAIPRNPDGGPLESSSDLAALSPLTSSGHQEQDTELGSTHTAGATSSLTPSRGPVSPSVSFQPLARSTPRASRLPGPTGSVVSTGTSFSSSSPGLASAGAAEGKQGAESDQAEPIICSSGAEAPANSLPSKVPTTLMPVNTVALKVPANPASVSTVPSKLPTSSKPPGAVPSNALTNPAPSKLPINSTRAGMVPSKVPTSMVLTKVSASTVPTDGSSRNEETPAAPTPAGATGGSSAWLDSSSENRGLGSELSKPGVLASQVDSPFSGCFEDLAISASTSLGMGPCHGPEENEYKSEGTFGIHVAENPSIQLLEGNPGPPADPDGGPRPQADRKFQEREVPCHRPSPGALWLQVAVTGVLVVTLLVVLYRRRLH
UniProt P0DMV8, whole entry: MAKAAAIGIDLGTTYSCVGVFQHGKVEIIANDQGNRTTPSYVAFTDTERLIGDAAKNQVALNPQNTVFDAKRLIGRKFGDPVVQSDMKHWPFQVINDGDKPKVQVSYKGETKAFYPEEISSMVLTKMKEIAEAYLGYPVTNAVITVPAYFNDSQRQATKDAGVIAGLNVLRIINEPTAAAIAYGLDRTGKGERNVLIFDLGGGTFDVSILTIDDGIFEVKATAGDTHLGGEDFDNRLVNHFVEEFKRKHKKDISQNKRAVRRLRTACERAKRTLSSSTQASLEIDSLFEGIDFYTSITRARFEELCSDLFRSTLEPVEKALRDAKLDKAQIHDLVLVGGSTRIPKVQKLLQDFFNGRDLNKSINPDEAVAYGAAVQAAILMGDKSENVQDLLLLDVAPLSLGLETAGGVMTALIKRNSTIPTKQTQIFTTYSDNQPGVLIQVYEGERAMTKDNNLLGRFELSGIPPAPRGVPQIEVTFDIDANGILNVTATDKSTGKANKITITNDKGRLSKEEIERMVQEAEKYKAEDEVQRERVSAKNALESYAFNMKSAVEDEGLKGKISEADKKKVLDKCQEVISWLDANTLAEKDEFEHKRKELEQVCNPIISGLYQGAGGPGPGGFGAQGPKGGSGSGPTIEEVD

Key:
Experiment in all cases: co-IP
[1] = target: SARS-CoV-2 ORF7b-HA (HEK293T) (SARS-CoV-2) (UniProt P0DTD8)
[2] = target: T1, SII-HA-UNC93B1 (UniProt Q9H1C4)
T1 sequence: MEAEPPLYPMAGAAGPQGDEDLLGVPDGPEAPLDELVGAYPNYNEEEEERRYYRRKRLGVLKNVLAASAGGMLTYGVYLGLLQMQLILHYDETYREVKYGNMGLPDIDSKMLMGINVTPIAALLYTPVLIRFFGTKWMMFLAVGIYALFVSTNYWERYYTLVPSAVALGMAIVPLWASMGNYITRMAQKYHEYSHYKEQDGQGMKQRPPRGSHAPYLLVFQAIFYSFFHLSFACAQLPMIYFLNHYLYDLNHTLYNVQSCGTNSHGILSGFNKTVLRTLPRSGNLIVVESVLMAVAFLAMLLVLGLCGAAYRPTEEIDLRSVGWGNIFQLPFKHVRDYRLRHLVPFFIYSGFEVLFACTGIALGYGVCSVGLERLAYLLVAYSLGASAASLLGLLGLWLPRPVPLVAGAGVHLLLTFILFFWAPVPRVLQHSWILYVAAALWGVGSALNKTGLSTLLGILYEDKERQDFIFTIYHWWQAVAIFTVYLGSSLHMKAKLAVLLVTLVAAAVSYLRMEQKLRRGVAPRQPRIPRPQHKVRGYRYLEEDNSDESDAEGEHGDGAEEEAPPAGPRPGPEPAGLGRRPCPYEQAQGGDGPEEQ

[3] = target: SARS-CoV N-HA (HEK293T) (SARS-CoV) (UniProt P59595)

MAVS (endogenous, HEK293T) (from UniProt Q7Z434 1-540)
binding [1]: binds

SARS-CoV-2 ORF7b-HA (HEK293T) (from UniProt P0DTD8 1-43)
binding [2]: binds

HSPA1A (endogenous, HEK293T) (from UniProt P0DMV8 1-641)
binding [3]: binds
